# Source: US9556201B2, “Bicyclic pyridines and analogs as sirtuin modulators” (GLAXOSMITHKLINE LLC, priority 2009, dated 2017)
# For at least one compound, name, drawing or mass did not settle the structure.
# Target: T1, SIRT1 (Homo sapiens, UniProt Q96EB6)
# T1 sequence (Q96EB6 1-747): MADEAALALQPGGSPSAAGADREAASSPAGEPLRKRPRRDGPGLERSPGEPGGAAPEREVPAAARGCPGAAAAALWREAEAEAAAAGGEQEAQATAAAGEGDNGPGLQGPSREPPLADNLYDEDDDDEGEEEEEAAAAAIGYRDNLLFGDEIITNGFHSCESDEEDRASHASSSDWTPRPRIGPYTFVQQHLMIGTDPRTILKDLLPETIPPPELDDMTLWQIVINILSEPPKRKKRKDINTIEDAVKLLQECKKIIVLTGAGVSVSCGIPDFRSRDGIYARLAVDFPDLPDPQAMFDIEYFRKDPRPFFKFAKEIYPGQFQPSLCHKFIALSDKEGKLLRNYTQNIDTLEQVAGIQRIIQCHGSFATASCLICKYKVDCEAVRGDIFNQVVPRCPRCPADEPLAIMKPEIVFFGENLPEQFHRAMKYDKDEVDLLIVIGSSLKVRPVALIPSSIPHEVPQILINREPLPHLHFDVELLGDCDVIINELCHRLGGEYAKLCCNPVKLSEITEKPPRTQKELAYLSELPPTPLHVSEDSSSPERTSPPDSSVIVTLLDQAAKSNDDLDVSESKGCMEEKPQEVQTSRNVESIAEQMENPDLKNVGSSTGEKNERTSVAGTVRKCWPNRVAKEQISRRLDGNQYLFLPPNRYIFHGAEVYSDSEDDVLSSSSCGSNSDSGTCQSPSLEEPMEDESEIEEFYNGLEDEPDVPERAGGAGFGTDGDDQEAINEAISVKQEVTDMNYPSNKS
# Test: Mass spectrometry based assay to identify modulators of SIRT1 activity (deacetylation of p53-based acetylated peptide substrate)
# Assay type: biochemical
# Conditions: SIRT1 activation
# Excerpt: A mass spectrometry based assay was used to identify modulators of SIRT1 activity. The mass spectrometry based assay utilizes a peptide having 20 amino acid residues as follows: Ac-EE-K(biotin)-GQSTSSHSK(Ac)NleSTEG-K(5TMR)-EE-NH2 (SEQ ID NO: 1) wherein K(Ac) is an acetylated lysine residue and Nle is a norleucine. The peptide is labeled with the fluorophore 5TMR (excitation 540 nm/emission 580 nm) at the C-terminus. The sequence of the peptide substrate is based on p53 with several modifications. In addition, the methionine residue naturally present in the sequence was replaced with the norleucine because the methionine may be susceptible to oxidation during synthesis and purification.
# The mass spectrometry assay is conducted as follows: […] peptide substrate and 120 μM βNAD^+ is incubated with 10 nM SIRT1 for 25 minutes at 25° C. in a reaction buffer (50 mM Tris-acetate pH 8, 137 mM NaCl, 2.7 mM KCl, 1 mM MgCl2, 5 mM DTT, 0.05% BSA). Test compounds may be added to the reaction as described above. The SirT1 gene is cloned into a T7-promoter containing vector and transformed into BL21(DE3). After the 25 minute incubation with SIRT1, 10 μL of 10% formic acid is added to stop the reaction. Reactions are sealed and frozen for later mass spec analysis. […]
smiles,measurement,value
"CN1CCN(C(=O)Nc2nccs2)c2nc(-c3cccc(C(F)(F)F)c3)ccc21 [Compound 529, 1-methyl-N-(thiazol-2-yl)-6-(3-(trifluoromethyl)phenyl)-2,3-dihydropyrido[2,3-b]pyrazine-4(1H)-carboxamide]",EC1.5,A (EC1.5<1.0 μM)
